± gives the standard deviation of the averaged measurements. Only a part is listed here, and it is no random draw.
Compound: Nc1ncnc2c1ncn2[C@@H]1O[C@H](COP(=O)(O)OP(=O)(O)OP(=O)(O)O)[C@@H](O)[C@H]1O [adenosine triphosphate]
Assay: NP40-soluble protein abundance relative to vehicle (solubility fold change) (ratio); higher = more soluble protein in presence of ATP
Summary of the method: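 Jurkat crude lysate (Dounce-homogenised) was treated with eight concentrations from 0.1 to 10 mM for 10 min at room temperature, then 3 min at 37 °C. It was solubilised with 0.8% NP40 and benzonase (60 min, 4 °C) and ultracentrifuged, and the supernatant was TMT-labelled for LC-MS/MS. Intensities were vsn-normalised, and the value is the fold change against the NP40-processed vehicle per replicate, from three independent experiments.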

By UniProt entry, the sequences of proteins in these tests, tags left out. Where a name states a change or a piece, a line headed by the entry shows the natural chain unless it says otherwise.
UniProt B7ZVY7, whole entry, looked up: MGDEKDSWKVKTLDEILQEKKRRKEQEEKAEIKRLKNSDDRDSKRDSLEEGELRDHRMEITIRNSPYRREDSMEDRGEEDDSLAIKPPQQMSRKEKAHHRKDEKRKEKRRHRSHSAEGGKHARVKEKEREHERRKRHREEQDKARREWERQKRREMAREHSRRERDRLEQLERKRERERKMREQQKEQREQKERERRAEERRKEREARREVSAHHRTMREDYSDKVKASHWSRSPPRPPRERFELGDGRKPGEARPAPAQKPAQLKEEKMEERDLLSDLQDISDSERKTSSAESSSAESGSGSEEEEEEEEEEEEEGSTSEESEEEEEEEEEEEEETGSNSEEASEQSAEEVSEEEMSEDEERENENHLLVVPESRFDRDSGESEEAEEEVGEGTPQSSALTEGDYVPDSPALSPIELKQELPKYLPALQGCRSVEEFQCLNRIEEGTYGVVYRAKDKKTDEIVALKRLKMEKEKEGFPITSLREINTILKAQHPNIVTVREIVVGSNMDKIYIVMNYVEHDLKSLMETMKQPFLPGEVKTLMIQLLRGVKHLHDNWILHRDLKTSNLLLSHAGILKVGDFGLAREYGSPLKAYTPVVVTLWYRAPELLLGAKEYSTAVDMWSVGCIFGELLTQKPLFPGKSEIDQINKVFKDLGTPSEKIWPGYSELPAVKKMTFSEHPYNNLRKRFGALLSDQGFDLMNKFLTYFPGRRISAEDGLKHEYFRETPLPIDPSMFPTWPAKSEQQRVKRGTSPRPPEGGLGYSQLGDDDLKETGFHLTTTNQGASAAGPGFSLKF
UniProt Q8N4C6: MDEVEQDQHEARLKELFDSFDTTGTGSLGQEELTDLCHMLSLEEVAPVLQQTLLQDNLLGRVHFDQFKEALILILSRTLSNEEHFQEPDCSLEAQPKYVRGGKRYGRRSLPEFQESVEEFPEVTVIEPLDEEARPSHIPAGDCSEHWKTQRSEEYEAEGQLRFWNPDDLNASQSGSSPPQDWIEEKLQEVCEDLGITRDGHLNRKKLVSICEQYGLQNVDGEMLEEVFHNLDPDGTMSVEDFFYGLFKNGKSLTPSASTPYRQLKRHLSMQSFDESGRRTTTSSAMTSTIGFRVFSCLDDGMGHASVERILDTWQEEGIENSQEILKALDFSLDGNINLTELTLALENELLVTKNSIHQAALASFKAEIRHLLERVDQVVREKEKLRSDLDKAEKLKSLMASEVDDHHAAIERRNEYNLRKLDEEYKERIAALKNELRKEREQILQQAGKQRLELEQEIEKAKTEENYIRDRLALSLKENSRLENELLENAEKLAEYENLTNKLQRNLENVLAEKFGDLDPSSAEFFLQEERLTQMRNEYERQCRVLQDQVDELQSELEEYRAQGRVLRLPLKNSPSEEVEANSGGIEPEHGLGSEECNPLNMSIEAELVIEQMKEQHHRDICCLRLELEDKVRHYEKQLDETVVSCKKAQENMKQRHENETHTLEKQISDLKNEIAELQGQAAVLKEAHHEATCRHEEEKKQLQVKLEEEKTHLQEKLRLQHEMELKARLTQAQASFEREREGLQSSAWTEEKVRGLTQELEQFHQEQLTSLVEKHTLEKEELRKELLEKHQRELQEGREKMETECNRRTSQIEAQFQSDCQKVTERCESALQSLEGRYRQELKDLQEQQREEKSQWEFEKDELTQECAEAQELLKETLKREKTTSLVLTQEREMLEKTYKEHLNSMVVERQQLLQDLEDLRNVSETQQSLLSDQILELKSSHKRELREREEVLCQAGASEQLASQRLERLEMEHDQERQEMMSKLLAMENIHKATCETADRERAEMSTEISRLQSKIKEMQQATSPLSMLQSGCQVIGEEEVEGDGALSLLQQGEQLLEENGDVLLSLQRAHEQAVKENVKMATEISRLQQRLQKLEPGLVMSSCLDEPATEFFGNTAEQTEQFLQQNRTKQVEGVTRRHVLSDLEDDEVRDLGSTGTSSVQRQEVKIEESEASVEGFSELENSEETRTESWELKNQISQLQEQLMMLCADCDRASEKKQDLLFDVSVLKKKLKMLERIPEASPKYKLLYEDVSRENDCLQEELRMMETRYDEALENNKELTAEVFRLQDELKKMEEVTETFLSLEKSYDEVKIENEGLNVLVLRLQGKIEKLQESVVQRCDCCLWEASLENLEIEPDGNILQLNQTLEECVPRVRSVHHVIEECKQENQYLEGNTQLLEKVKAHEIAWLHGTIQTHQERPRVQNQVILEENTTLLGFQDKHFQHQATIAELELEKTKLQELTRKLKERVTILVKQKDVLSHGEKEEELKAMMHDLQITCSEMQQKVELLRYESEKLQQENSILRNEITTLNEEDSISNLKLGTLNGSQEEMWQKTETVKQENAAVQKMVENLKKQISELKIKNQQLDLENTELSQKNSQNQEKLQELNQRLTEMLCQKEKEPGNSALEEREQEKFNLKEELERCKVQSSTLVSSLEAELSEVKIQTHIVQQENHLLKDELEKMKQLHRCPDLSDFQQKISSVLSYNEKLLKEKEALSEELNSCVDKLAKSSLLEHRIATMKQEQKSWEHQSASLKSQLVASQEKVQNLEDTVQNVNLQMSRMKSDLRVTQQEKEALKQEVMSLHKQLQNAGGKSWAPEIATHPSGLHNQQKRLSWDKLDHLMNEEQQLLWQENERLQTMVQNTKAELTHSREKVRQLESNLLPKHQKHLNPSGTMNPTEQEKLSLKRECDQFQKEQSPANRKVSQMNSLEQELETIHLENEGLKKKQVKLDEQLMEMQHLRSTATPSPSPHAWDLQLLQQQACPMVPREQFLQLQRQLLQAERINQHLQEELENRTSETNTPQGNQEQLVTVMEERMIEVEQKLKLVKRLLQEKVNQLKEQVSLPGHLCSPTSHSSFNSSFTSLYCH
UniProt O15162: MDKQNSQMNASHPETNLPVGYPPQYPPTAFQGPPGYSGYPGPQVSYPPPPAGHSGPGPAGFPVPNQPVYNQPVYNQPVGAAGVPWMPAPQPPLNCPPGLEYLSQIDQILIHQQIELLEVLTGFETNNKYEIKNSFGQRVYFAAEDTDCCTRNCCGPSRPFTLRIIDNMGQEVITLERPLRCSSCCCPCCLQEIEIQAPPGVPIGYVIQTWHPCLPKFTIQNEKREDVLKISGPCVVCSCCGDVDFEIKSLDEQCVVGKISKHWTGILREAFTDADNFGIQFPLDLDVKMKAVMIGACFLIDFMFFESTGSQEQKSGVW
UniProt Q5XKP0: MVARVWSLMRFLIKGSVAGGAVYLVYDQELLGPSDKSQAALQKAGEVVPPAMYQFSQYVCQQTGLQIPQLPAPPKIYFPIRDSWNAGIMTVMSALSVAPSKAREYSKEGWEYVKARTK
UniProt Q6GTX8: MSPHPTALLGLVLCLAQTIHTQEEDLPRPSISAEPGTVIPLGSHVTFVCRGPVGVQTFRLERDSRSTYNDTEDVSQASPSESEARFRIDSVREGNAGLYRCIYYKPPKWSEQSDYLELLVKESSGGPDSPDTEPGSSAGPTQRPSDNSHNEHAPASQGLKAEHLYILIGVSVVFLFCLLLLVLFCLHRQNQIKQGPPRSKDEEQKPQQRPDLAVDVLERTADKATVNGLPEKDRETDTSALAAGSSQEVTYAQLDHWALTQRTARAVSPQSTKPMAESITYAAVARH
UniProt P63098, whole entry, looked up: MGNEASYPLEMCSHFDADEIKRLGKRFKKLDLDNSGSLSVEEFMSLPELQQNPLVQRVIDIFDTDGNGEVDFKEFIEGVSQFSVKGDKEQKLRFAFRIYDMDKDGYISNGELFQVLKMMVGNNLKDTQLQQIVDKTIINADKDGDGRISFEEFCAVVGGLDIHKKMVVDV
UniProt Q96G01: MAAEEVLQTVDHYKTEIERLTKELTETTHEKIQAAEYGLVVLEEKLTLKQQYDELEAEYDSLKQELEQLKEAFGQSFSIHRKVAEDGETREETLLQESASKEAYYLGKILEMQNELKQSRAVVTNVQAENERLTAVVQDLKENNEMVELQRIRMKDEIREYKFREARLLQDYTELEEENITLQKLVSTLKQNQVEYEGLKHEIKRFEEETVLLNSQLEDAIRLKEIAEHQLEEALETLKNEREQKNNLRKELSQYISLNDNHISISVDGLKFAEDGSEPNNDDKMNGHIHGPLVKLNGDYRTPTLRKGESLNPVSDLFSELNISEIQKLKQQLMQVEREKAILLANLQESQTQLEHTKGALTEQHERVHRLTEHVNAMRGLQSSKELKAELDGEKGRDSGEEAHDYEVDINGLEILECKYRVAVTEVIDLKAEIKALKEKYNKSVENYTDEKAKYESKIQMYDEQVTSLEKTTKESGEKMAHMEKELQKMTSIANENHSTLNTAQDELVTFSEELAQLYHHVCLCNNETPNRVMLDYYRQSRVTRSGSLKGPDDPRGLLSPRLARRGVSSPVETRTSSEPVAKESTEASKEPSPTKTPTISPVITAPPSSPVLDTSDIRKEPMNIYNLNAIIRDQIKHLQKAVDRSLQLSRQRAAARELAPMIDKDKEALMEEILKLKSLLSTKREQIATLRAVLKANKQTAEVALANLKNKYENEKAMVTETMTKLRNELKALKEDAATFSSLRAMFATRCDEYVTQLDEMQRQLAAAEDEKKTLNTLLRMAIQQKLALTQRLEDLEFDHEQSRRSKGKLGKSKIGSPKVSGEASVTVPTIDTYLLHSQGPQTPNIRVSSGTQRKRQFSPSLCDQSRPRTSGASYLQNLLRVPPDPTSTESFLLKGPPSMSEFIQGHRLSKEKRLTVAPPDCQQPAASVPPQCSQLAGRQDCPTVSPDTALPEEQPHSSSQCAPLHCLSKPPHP
UniProt Q7Z6J8: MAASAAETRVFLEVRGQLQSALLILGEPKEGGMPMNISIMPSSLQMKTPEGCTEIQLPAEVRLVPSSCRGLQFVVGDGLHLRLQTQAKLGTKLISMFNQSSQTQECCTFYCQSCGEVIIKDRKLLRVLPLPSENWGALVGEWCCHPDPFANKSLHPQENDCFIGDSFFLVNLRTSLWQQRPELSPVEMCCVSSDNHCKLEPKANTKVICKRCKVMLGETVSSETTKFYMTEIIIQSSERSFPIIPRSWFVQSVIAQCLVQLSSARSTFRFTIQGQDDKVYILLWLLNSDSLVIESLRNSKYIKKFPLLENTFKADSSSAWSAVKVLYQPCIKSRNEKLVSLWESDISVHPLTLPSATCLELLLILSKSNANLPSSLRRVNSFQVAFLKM
UniProt O60610, whole entry: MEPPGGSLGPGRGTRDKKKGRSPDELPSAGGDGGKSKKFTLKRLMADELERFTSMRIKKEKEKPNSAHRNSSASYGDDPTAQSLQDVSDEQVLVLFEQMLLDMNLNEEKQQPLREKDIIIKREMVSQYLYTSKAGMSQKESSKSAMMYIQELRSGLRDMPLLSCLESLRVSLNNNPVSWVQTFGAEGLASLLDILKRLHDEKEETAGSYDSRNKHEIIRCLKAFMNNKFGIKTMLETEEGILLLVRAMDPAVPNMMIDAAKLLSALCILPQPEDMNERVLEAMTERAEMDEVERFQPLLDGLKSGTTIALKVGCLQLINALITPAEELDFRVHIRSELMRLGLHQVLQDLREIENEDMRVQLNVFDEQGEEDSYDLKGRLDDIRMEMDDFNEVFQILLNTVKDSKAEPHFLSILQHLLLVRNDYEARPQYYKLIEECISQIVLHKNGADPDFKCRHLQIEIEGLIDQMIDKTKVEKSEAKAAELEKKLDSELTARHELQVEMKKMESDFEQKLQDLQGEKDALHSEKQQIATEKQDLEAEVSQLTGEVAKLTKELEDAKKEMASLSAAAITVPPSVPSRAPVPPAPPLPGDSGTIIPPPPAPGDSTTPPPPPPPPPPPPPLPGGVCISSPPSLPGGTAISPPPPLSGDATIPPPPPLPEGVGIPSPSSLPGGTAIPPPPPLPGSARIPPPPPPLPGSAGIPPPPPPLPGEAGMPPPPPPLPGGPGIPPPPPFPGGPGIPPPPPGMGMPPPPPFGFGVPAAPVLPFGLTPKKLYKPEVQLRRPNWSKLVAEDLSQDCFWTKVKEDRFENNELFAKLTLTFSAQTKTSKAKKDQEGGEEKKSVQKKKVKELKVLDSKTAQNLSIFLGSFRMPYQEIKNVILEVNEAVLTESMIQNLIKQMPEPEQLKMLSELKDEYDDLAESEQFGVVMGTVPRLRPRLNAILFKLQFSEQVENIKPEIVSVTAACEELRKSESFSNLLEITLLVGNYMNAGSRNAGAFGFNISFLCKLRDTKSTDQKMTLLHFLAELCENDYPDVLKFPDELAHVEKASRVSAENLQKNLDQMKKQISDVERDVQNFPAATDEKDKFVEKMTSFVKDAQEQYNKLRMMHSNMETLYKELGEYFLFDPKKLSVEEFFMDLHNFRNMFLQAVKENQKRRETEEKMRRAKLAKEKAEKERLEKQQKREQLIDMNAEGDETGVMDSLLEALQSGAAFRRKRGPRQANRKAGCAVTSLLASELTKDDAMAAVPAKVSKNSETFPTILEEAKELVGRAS

Target	NP40-soluble protein abundance (concentration: 1mM)	NP40-soluble protein abundance (concentration: 2mM)	NP40-soluble protein abundance (concentration: 4mM)	NP40-soluble protein abundance (concentration: 6mM)	NP40-soluble protein abundance (concentration: 8mM)	NP40-soluble protein abundance (concentration: 10mM)
B7ZVY7 and related entries (UniProt P21127+B7ZVY7)	0.868 ± 0.035	0.784 ± 0.041	0.7 ± 0.043	0.696 ± 0.044	0.697 ± 0.032	0.713 ± 0.063
A0A0U1RRB6|Q9Y2D4 and related entries (UniProt Q9Y2D4)	0.983 ± 0.036	0.982 ± 0.034	0.985 ± 0.036	0.982 ± 0.028	0.969 ± 0.036	0.971 ± 0.06
B1ALH6 and related entries (UniProt O14832)	0.928 ± 0.034	0.943 ± 0.016	0.93 ± 0.069	0.949 ± 0.02	0.895 ± 0.078	0.947 ± 0.046
C9J066 and related entries (UniProt Q8N4C6)	1.01 ± 0.024	0.984 ± 0.037	1.02 ± 0.03	1.05 ± 0.024	1.01 ± 0.023	1.02 ± 0.024
D3YTB1 and related entries (UniProt P62910)	0.931 ± 0.048	0.909 ± 0.1	0.873 ± 0.098	0.766 ± 0.12	0.635 ± 0.18	0.852 ± 0.14
C9J8B8 and related entries (UniProt Q969S8)	0.847 ± 0.012	0.872 ± 0.091	0.817 ± 0.063	0.857 ± 0.016	0.901 ± 0.17	0.859 ± 0.1
B4DJL6 and related entries (UniProt Q96SY0)	0.984 ± 0.052	1 ± 0.024	1.005 ± 0.01	0.991 ± 0.082	1.01 ± 0.015	1.07 ± 0.038
B7ZM99 and related entries (UniProt Q6UB35)	1 ± 0.049	1.01 ± 0.041	0.996 ± 0.035	0.957 ± 0.088	1 ± 0.042	0.996 ± 0.037
C9J7K9 and related entries (UniProt O15162)	0.931 ± 0.14	0.911 ± 0.1	0.935 ± 0.12	0.883 ± 0.052	0.944 ± 0.13	0.942 ± 0.057
B9A054 and related entries (UniProt Q8TEB9)	0.969 ± 0.078	0.98777 ± 0.00047	0.959 ± 0.026	1.03 ± 0.044	0.962 ± 0.11	0.981 ± 0.076
A0A140TA86|Q5XKP0 (UniProt Q5XKP0)	0.962 ± 0.04	0.878 ± 0.03	0.913 ± 0.039	0.957 ± 0.019	0.929 ± 0.025	0.859 ± 0.043
UniProt B4DLN1	0.998 ± 0.026	0.9549 ± 0.0023	0.9743 ± 0.0057	0.921 ± 0.02	0.973 ± 0.04	1.02 ± 0.05
A6NJD9 and related entries (UniProt Q16540)	1.01 ± 0.075	0.92 ± 0.12	0.916 ± 0.15	0.833 ± 0.22	0.927 ± 0.22	0.856 ± 0.17
A6NCE7 and related entries (UniProt Q9GZQ8+H3BTL1+A6NCE7)	0.986 ± 0.039	0.966 ± 0.0073	0.931 ± 0.024	0.968 ± 0.024	0.929 ± 0.049	0.9296 ± 0.0087
UniProt A6NHR9 and related entries	1.04 ± 0.068	1.04 ± 0.068	1.04 ± 0.05	1.02 ± 0.082	1.09 ± 0.042	1.08 ± 0.066
UniProt A5YKK6 and related entries	1.21 ± 0.017	1.21 ± 0.037	1.26 ± 0.049	1.27 ± 0.078	1.35 ± 0.085	1.34 ± 0.087
A0A0G2JLV7|A0A0G2JMI0|A0A0G2JNK8|A0A0G2JNU6|A0A0G2JP18|A0A0G2JQ50|A0A140T8W3|Q6GTX8 and related entries (UniProt Q6GTX8)	0.984 ± 0.12	0.983 ± 0.049	0.993 ± 0.071	0.991 ± 0.07	0.977 ± 0.046	0.889 ± 0.069
A6NMQ1 and related entries (UniProt P09884)	0.991 ± 0.061	1.01 ± 0.043	0.964 ± 0.03	0.965 ± 0.023	1 ± 0.018	0.966 ± 0.028
B7Z3R9 and related entries (UniProt Q8TE99)	0.942 ± 0.039	1.02 ± 0.012	0.994 ± 0.036	0.975 ± 0.03	0.908 ± 0.012	0.966 ± 0.085
UniProt A2RUC4 and related entries	1.03 ± 0.063	0.987 ± 0.055	1.01 ± 0.12	1.04 ± 0.13	1.03 ± 0.15	1.06 ± 0.034
A6NHG8 and related entries (UniProt Q13114)	1.05 ± 0.027	1.07 ± 0.097	1.08 ± 0.11	1.14 ± 0.12	1.19 ± 0.12	1.08 ± 0.1
B2RA97 and related entries (UniProt Q9Y5N5)	0.958 ± 0.081	0.958 ± 0.06	0.972 ± 0.05	0.938 ± 0.1	0.884 ± 0.059	0.947 ± 0.039
D3YTA9 and related entries (UniProt H7BYZ3+F6U1T9+P63098+D3YTA9)	0.969 ± 0.037	0.951 ± 0.03	0.957 ± 0.012	1 ± 0.028	0.909 ± 0.018	0.897 ± 0.067
B8ZZC8 and related entries (UniProt Q9NRN9)	1.02 ± 0.04	1.02 ± 0.048	1.03 ± 0.052	1.01 ± 0.084	1.04 ± 0.041	1.04 ± 0.055
A8MVZ6 and related entries (UniProt Q96G01)	0.975 ± 0.033	1.07 ± 0.086	0.9752 ± 0.0059	0.997 ± 0.042	0.949 ± 0.013	0.963 ± 0.026
D6RD24 and related entries (UniProt Q7Z6J8)	0.931 ± 0.082	0.973 ± 0.13	1.02 ± 0.11	1.01 ± 0.14	0.971 ± 0.12	0.991 ± 0.069
A0AVT1	1.01 ± 0.084	0.988 ± 0.074	0.963 ± 0.059	0.958 ± 0.1	0.994 ± 0.044	0.963 ± 0.061
A0A0G2JH68 (UniProt O60610)	0.958 ± 0.024	0.959 ± 0.015	0.93 ± 0.022	0.977 ± 0.014	0.938 ± 0.029	0.948 ± 0.029
A0A0G2JIR1|A0A0G2JIS2|A0A0G2JK64|A2ABF8 and related entries (UniProt Q96KQ7)	1.02 ± 0.056	1.099 ± 0.0099	1 ± 0.097	1.08 ± 0.068	0.965 ± 0.094	1.04 ± 0.066
SH3PXD2B (UniProt A1X283)	0.951 ± 0.058	0.963 ± 0.024	0.9739 ± 0.0059	0.989 ± 0.012	0.941 ± 0.03	0.956 ± 0.032

Another view of part of the listing above.
Target,NP40-soluble protein abundance (concentration: 1mM),NP40-soluble protein abundance (concentration: 2mM),NP40-soluble protein abundance (concentration: 4mM),NP40-soluble protein abundance (concentration: 6mM),NP40-soluble protein abundance (concentration: 8mM),NP40-soluble protein abundance (concentration: 10mM)
D3YTB1 and related entries (UniProt P62910),0.931 ± 0.048,0.909 ± 0.1,0.873 ± 0.098,0.766 ± 0.12,0.635 ± 0.18,0.852 ± 0.14
A6NHG8 and related entries (UniProt Q13114),1.05 ± 0.027,1.07 ± 0.097,1.08 ± 0.11,1.14 ± 0.12,1.19 ± 0.12,1.08 ± 0.1
